Values quoted from earlier work as cited in patent publication US12714713B2, “Method of treating cancers with alkyne substituted quinazoline derivatives” (Black Diamond Therapeutics, Inc., priority 2021, dated 2026).
At least one structure is not confirmed: it was looked up by name or label, or the drawing left a doubt.

System: GBM
Conditions: cited from earlier work

Cn1nnc2c(C(N)=O)ncn2c1=O [temozolomide]
median OS (mOS) (radiation and temozolomide alone (standard of care)): 14.6 months
median PFS (mPFS) (radiation and temozolomide alone): 6.9 months
